Some entries share one result that the patent states for a list of compounds.
System: human primary CD8^+T cells (CD3^+CD8^+)
Assay: In-vitro induction and amplification of CD8+TSCM in culture media A to E (cell count, flow cytometry CD45RA, CCR7, CD95)
Type: cell-based
Details: for concentration range that effectively induces the formation of TSCM: cytokine inducing agents
Method: 1) Pre-prepared human primary T cells (Shanghai Sinobay Bio-Tech Co., Ltd., hereinafter referred to as “Sinobay”) were selected by a magnetic bead negative selection method to obtain human primary CD8^+T cells (CD3^+CD8^+), and the human primary CD8^+T cells (CD3^+CD8^+) were placed in a 96-well U-bottom culture plate, with 5×10^4 CD8^+T cells in each well;
2) subsequently, culture media A to E and magnetic beads coupled to an anti-CD3 antibody and an anti-CD28 antibody were added into the culture plates containing the CD8^+T cells, wherein a ratio of the number of the magnetic beads to the number of the cells was 1:1; and fresh culture media A to E were supplemented at Day 4, Day 7, Day 10 and Day 13 of cell culture; and
3) the cells were counted at Day 0, Day 7 and Day 14 of cell culture respectively, flow cytometry antibodies (CD45RA, CCR7 and CD95) for detecting TSCM were incubated, and the TSCM was detected by using a flow cytometry.

For IL-15: cytokine, inducing agent, the “concentration for effectively amplifying CD8+TSCM” value was 1 to 100 ng/mL and the “concentration range that effectively induces the formation of TSCM” value was 1 to 100 ng/mL.

For “IL-21: cytokine interleukin-21, inducing agent”, the “concentration for effectively amplifying CD8+TSCM” value was 1 to 100 ng/mL and the “concentration range that effectively induces the formation of TSCM” value was 1 to 100 ng/mL.
